The list does not hold the whole screen: its compounds were picked by chemical class. Other doses and runs of a compound may be missing. T/C gives the treated animals as a percentage of the vehicle group. Where survival is the endpoint, this PubChem deposit counts one and a half times the control or more as active, and values a quarter to a half above the control carry no call in these data; other NCI protocols may use other cut-offs. Some T/C values are marked as having no survivor count here; that says nothing about deaths at the dose. Schedule codes are those of the source, taken here to give the interval after Q, in days (D) or hours (H), and the number of doses after X. Some entries hold several experiments; the results are listed from low to high. Some schedule codes hold Z or #, which are not explained here. Signs of the kind (2×) give the number of equal values in this list.
System: L1210 leukemia ip in BDF1 mice, survival T/C
Test: NCI In Vivo Anticancer Drug Screen. Data for tumor model L1210 Leukemia (intraperitoneal) in B6D2F1 (BDF1) mice
Conditions: T/C endpoint: mean survival time, higher T/C = longer survival

ClCCNCCCl
T/C (dose: 2.5 mg/kg/injection, schedule: Q#A X034 (ip), vehicle: saline): 93 % of control [survivor count not shown]
T/C (dose: 3.0 mg/kg/injection, schedule: Q01DX Z (ip), vehicle: saline): 94 % of control [survivor count not shown]
T/C (dose: 5.0 mg/kg/injection, schedule: Q01DX017 (ip), vehicle: saline): 107 % of control [survivor count not shown]
T/C (dose: 5.0 mg/kg/injection, schedule: Q01DX Z (ip), vehicle: saline): 101 % of control [survivor count not shown]
T/C (dose: 5.0 mg/kg/injection, schedule: Q02DX009 (ip), vehicle: saline): 102 % of control [survivor count not shown]
T/C (dose: 5.0 mg/kg/injection, schedule: Q#A X034 (ip), vehicle: saline): 100 % of control [survivor count not shown]
T/C (dose: 5.0 mg/kg/injection, schedule: Q#A X Z (ip), vehicle: saline): 104 % of control [survivor count not shown]
T/C (dose: 5.4 mg/kg/injection, schedule: Q03HX008 (ip), vehicle: steroid suspending solution): 105 % of control [survivor count not shown]
T/C (dose: 7.7 mg/kg/injection, schedule: Q03HX008 (ip), vehicle: steroid suspending solution): 111 % of control [survivor count not shown]
T/C (dose: 8.4 mg/kg/injection, schedule: Q01DX Z (ip), vehicle: saline): 112 % of control [survivor count not shown]
T/C (dose: 10.0 mg/kg/injection, schedule: Q01DX017 (ip), vehicle: saline): 115 % of control [survivor count not shown]
T/C (dose: 10.0 mg/kg/injection, schedule: Q01DX Z (im), vehicle: saline): 108 % of control [survivor count not shown]
T/C (dose: 10.0 mg/kg/injection, schedule: Q01DX Z (ip), vehicle: saline): 100 % of control [survivor count not shown]
T/C (dose: 10.0 mg/kg/injection, schedule: Q01DX Z (sc), vehicle: saline): 102 % of control [survivor count not shown]
T/C (dose: 10.0 mg/kg/injection, schedule: Q02DX009 (ip), vehicle: saline): 103 % of control [survivor count not shown]
T/C (dose: 10.0 mg/kg/injection, schedule: Q#A X034 (ip), vehicle: saline): 103 % of control [survivor count not shown]
T/C (dose: 10.0 mg/kg/injection, schedule: Q#A X Z (ip), vehicle: saline): 95 % of control [survivor count not shown]
T/C (dose: 11.1 mg/kg/injection, schedule: Q01DX001 (ip), vehicle: steroid suspending solution): 94 % of control [survivor count not shown]
T/C (dose: 11.1 mg/kg/injection, schedule: Q03HX008 (ip), vehicle: steroid suspending solution): 122 % of control [survivor count not shown]
T/C (dose: 12.5 mg/kg/injection, schedule: Q01DX001 (ip), vehicle: steroid suspending solution): 109 % of control [survivor count not shown]
T/C (dose: 12.5 mg/kg/injection, schedule: Q01DX Z (ip), vehicle: carboxymethylcellulose (CMC)): 97 % of control [survivor count not shown]
T/C (dose: 14.0 mg/kg/injection, schedule: Q01DX Z (ip), vehicle: saline): 111 % of control [survivor count not shown]
T/C (dose: 15.8 mg/kg/injection, schedule: Q01DX001 (ip), vehicle: steroid suspending solution): 97 % of control [survivor count not shown]
T/C (dose: 15.8 mg/kg/injection, schedule: Q03HX008 (ip), vehicle: steroid suspending solution): 136 % of control [survivor count not shown]
T/C (dose: 18.8 mg/kg/injection, schedule: Q01DX009 (ip), vehicle: saline): 97 [survivor count not shown] and 103 % of control [survivor count not shown]
T/C (dose: 18.8 mg/kg/injection, schedule: Q01DX010 (ip), vehicle: saline): 100 [survivor count not shown] and 103 % of control [survivor count not shown]
T/C (dose: 20.0 mg/kg/injection, schedule: Q01DX017 (ip), vehicle: saline): 111 % of control [survivor count not shown]
T/C (dose: 20.0 mg/kg/injection, schedule: Q01DX Z (im), vehicle: saline): 96 % of control [survivor count not shown]
T/C (dose: 20.0 mg/kg/injection, schedule: Q01DX Z (ip), vehicle: saline): 103 % of control [survivor count not shown]
T/C (dose: 20.0 mg/kg/injection, schedule: Q01DX Z (sc), vehicle: saline): 103 % of control [survivor count not shown]
T/C (dose: 20.0 mg/kg/injection, schedule: Q02DX009 (ip), vehicle: saline): 111 % of control [survivor count not shown]
T/C (dose: 20.0 mg/kg/injection, schedule: Q#A X034 (ip), vehicle: saline): 117 % of control [survivor count not shown]
T/C (dose: 20.0 mg/kg/injection, schedule: Q#A X Z (ip), vehicle: saline): 91 % of control [survivor count not shown]
T/C (dose: 22.6 mg/kg/injection, schedule: Q01DX001 (ip), vehicle: steroid suspending solution): 100 % of control [survivor count not shown]
T/C (dose: 22.6 mg/kg/injection, schedule: Q03HX008 (ip), vehicle: steroid suspending solution): 96 % of control [survivor count not shown]
T/C (dose: 23.0 mg/kg/injection, schedule: Q01DX Z (ip), vehicle: saline): 116 % of control [survivor count not shown]
T/C (dose: 25.0 mg/kg/injection, schedule: Q01DX001 (ip), vehicle: steroid suspending solution): 113 % of control [survivor count not shown]
T/C (dose: 25.0 mg/kg/injection, schedule: Q01DX Z (ip), vehicle: carboxymethylcellulose (CMC)): 95 % of control [survivor count not shown]
T/C (dose: 25.0 mg/kg/injection, schedule: Q03HX008 (ip), vehicle: steroid suspending solution): 113 % of control [survivor count not shown]
T/C (dose: 32.3 mg/kg/injection, schedule: Q01DX001 (ip), vehicle: steroid suspending solution): 116 % of control [survivor count not shown]
T/C (dose: 37.5 mg/kg/injection, schedule: Q01DX001 (ip), vehicle: saline): 107 % of control [survivor count not shown]
T/C (dose: 37.5 mg/kg/injection, schedule: Q01DX009 (ip), vehicle: saline): 125 [survivor count not shown] and 133 % of control [survivor count not shown]
T/C (dose: 37.5 mg/kg/injection, schedule: Q01DX010 (ip), vehicle: saline): 123 [survivor count not shown] and 135 % of control [survivor count not shown]
T/C (dose: 40.0 mg/kg/injection, schedule: Q01DX017 (ip), vehicle: saline): 145 % of control [survivor count not shown]
T/C (dose: 40.0 mg/kg/injection, schedule: Q01DX Z (im), vehicle: saline): 94 % of control [survivor count not shown]
T/C (dose: 40.0 mg/kg/injection, schedule: Q01DX Z (ip), vehicle: saline): 97 % of control [survivor count not shown]
T/C (dose: 40.0 mg/kg/injection, schedule: Q01DX Z (sc), vehicle: saline): 102 % of control [survivor count not shown]
T/C (dose: 40.0 mg/kg/injection, schedule: Q02DX009 (ip), vehicle: saline): 123 % of control [survivor count not shown]
T/C (dose: 40.0 mg/kg/injection, schedule: Q#A X034 (ip), vehicle: saline): 123 % of control [survivor count not shown]
T/C (dose: 40.0 mg/kg/injection, schedule: Q#A X Z (ip), vehicle: saline): 98 [survivor count not shown] and 111 % of control [survivor count not shown]
T/C (dose: 46.1 mg/kg/injection, schedule: Q01DX001 (ip), vehicle: steroid suspending solution): 119 % of control [survivor count not shown]
T/C (dose: 50.0 mg/kg/injection, schedule: Q01DX001 (ip), vehicle: steroid suspending solution): 125 % of control [survivor count not shown]
T/C (dose: 50.0 mg/kg/injection, schedule: Q01DX Z (ip), vehicle: carboxymethylcellulose (CMC)): 137 % of control [survivor count not shown]
T/C (dose: 50.0 mg/kg/injection, schedule: Q01DX Z (oral), vehicle: saline): 103 % of control [survivor count not shown]
T/C (dose: 50.0 mg/kg/injection, schedule: Q03HX008 (ip), vehicle: steroid suspending solution): 113 % of control [survivor count not shown]
T/C (dose: 60.0 mg/kg/injection, schedule: Q03DX Z (ip), vehicle: saline): 97 % of control [survivor count not shown]
T/C (dose: 60.0 mg/kg/injection, schedule: Q#A X Z (ip), vehicle: saline): 109 % of control [survivor count not shown]
T/C (dose: 65.9 mg/kg/injection, schedule: Q01DX001 (ip), vehicle: steroid suspending solution): 139 % of control [survivor count not shown]
T/C (dose: 75.0 mg/kg/injection, schedule: Q01DX001 (ip), vehicle: saline): 127 [survivor count not shown] and 136 % of control [survivor count not shown]
T/C (dose: 75.0 mg/kg/injection, schedule: Q01DX009 (ip), vehicle: saline): 105 [survivor count not shown] and 117 % of control [survivor count not shown]
T/C (dose: 75.0 mg/kg/injection, schedule: Q01DX010 (ip), vehicle: saline): 106 [survivor count not shown] and 140 % of control [survivor count not shown]
T/C (dose: 80.0 mg/kg/injection, schedule: Q01DX017 (ip), vehicle: saline): 142 % of control [survivor count not shown]
T/C (dose: 80.0 mg/kg/injection, schedule: Q01DX Z (im), vehicle: saline): 97 % of control [survivor count not shown]
T/C (dose: 80.0 mg/kg/injection, schedule: Q01DX Z (ip), vehicle: saline): 102 % of control [survivor count not shown]
T/C (dose: 80.0 mg/kg/injection, schedule: Q01DX Z (sc), vehicle: saline): 103 % of control [survivor count not shown]
T/C (dose: 80.0 mg/kg/injection, schedule: Q02DX009 (ip), vehicle: saline): 179 % of control [survivor count not shown]
T/C (dose: 80.0 mg/kg/injection, schedule: Q#A X Z (ip), vehicle: saline): 91 % of control [survivor count not shown]
T/C (dose: 90.0 mg/kg/injection, schedule: Q#A X Z (ip), vehicle: saline): 117 % of control [survivor count not shown]
T/C (dose: 94.2 mg/kg/injection, schedule: Q01DX001 (ip), vehicle: steroid suspending solution): 135 % of control [survivor count not shown]
T/C (dose: 100.0 mg/kg/injection, schedule: Q01DX Z (ip), vehicle: carboxymethylcellulose (CMC)): 134 % of control [survivor count not shown]
T/C (dose: 100.0 mg/kg/injection, schedule: Q01DX Z (oral), vehicle: saline): 102 % of control [survivor count not shown]
T/C (dose: 100.0 mg/kg/injection, schedule: Q03HX008 (ip), vehicle: steroid suspending solution): 110 % of control [survivor count not shown]
T/C (dose: 120.0 mg/kg/injection, schedule: Q03DX Z (ip), vehicle: saline): 97 % of control [survivor count not shown]
T/C (dose: 125.0 mg/kg/injection, schedule: Q01DX001 (ip), vehicle: saline): 94 [survivor count not shown] and 101 % of control [survivor count not shown]
T/C (dose: 125.0 mg/kg/injection, schedule: Q07DX Z (ip), vehicle: saline): 100 % of control [survivor count not shown]
T/C (dose: 125.0 mg/kg/injection, schedule: Q#A X Z (ip), vehicle: saline): 100 % of control [survivor count not shown]
T/C (dose: 150.0 mg/kg/injection, schedule: Q01DX001 (ip), vehicle: saline): 106 % of control [survivor count not shown]
T/C (dose: 150.0 mg/kg/injection, schedule: Q01DX009 (ip), vehicle: saline): 87 % of control [survivor count not shown]
T/C (dose: 160.0 mg/kg/injection, schedule: Q01DX Z (im), vehicle: saline): 89 % of control [survivor count not shown] (2×)
T/C (dose: 160.0 mg/kg/injection, schedule: Q01DX Z (ip), vehicle: saline): 97 [survivor count not shown] and 100 % of control [survivor count not shown]
T/C (dose: 160.0 mg/kg/injection, schedule: Q01DX Z (sc), vehicle: saline): 94 [survivor count not shown] and 95 % of control [survivor count not shown]
T/C (dose: 160.0 mg/kg/injection, schedule: Q02DX009 (ip), vehicle: saline): 101 % of control [survivor count not shown]
T/C (dose: 200.0 mg/kg/injection, schedule: Q01DX Z (oral), vehicle: saline): 108 % of control [survivor count not shown]
T/C (dose: 240.0 mg/kg/injection, schedule: Q01DX Z (im), vehicle: saline): 94 % of control [survivor count not shown]
T/C (dose: 240.0 mg/kg/injection, schedule: Q01DX Z (sc), vehicle: saline): 89 % of control [survivor count not shown]
T/C (dose: 250.0 mg/kg/injection, schedule: Q01DX001 (ip), vehicle: saline): 102 [survivor count not shown] and 103 % of control [survivor count not shown]
T/C (dose: 250.0 mg/kg/injection, schedule: Q07DX Z (ip), vehicle: saline): 89 % of control [survivor count not shown]
T/C (dose: 360.0 mg/kg/injection, schedule: Q01DX Z (im), vehicle: saline): 97 % of control [survivor count not shown]
T/C (dose: 360.0 mg/kg/injection, schedule: Q01DX Z (sc), vehicle: saline): 91 % of control [survivor count not shown]
T/C (dose: 400.0 mg/kg/injection, schedule: Q01DX Z (oral), vehicle: saline): 103 % of control [survivor count not shown]
T/C (dose: 500.0 mg/kg/injection, schedule: Q01DX001 (ip), vehicle: saline): 103 % of control [survivor count not shown]
T/C (dose: 500.0 mg/kg/injection, schedule: Q01DX Z (im), vehicle: saline): 95 % of control [survivor count not shown]
T/C (dose: 1000.0 mg/kg/injection, schedule: Q01DX001 (ip), vehicle: saline): 86 % of control [survivor count not shown]

Source: PubChem BioAssay AID248 (DTP/NCI, 2004)
